This assay concerns the target Collagen type X alpha 1 (COL10A1) (human (endogenous in H1299)) (UniProt Q03692). As to the kind of experiment: co-IP; H1299 cell lysate in co-IP buffer (20 mM Tris-Cl pH 7.5, 150 mM NaCl, 1 mM EDTA, 0.5% NP-40, 5 μg/ml aprotinin); 5 μg anti-collagen X antibody (ab58632) and protein A-Sepharose, 4°C, 4 h; bound protein detected by western blot. In general terms: A western blot detects proteins with antibodies after separation by electrophoresis.

By UniProt entry, the sequences of proteins in these tests, tags left out. Where a name states a change or a piece, a line headed by the entry shows the natural chain unless it says otherwise. Residues count along the entry.
UniProt Q03692, residues 19-680: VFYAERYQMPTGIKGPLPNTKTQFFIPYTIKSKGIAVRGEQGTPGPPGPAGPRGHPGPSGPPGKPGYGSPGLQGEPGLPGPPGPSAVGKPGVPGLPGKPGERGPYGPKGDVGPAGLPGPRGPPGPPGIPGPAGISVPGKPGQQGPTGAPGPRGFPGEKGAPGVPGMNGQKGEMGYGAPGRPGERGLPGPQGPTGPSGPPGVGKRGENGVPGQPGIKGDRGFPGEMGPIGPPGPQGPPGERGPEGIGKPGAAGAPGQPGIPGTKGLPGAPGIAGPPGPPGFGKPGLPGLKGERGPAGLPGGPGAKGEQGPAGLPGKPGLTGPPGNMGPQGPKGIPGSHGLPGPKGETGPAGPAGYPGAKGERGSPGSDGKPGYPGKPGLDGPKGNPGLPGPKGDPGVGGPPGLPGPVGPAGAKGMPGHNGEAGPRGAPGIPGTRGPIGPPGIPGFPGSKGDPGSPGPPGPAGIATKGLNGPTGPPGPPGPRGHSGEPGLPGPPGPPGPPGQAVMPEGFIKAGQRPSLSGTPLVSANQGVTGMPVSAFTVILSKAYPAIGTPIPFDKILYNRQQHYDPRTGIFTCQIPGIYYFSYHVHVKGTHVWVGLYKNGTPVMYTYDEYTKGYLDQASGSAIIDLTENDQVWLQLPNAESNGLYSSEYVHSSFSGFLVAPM
UniProt P05556: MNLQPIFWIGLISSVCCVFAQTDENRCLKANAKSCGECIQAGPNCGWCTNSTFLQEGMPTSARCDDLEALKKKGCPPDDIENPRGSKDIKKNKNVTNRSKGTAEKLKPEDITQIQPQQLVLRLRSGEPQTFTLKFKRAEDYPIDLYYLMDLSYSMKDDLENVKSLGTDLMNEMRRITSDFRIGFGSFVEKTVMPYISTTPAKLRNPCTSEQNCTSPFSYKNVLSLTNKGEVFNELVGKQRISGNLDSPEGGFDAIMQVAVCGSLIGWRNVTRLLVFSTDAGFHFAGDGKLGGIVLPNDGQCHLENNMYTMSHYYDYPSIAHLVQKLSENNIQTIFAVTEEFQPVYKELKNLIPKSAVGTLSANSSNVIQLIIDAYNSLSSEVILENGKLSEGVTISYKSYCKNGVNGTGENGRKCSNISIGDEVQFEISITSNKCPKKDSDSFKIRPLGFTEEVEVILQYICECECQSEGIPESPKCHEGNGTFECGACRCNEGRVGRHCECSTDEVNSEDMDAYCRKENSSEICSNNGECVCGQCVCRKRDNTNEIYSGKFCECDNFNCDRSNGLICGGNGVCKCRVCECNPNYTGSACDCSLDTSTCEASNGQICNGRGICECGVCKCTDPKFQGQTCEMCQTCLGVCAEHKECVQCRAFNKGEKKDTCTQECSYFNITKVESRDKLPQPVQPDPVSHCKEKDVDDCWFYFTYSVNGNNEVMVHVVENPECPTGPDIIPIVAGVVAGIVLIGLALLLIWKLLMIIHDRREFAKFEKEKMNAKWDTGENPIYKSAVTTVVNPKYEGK

These are yes or no findings as the source states them, for the method shown. In cells and extracts the contact can be indirect. Some entries that bind do so weakly or less than the wild type.

The source of these data is publication PMC7726267.

Consider “integrin β1 (from UniProt P05556 21-798) (receptor)”, for which the binding result is on record as “no binding”.

B1: Discoidin domain receptor tyrosine kinase 2 (DDR2) (receptor, UniProt Q16832 22-855)
chain: KAQVNPAICRYPLGMSGGQIPDEDITASSQWSESTAAKYGRLDSEEGDGAWCPEIPVEPDDLKEFLQIDLHTLHFITLVGTQGRHAGGHGIEFAPMYKINYSRDGTRWISWRNRHGKQVLDGNSNPYDIFLKDLEPPIVARFVRFIPVTDHSMNVCMRVELYGCVWLDGLVSYNAPAGQQFVLPGGSIIYLNDSVYDGAVGYSMTEGLGQLTDGVSGLDDFTQTHEYHVWPGYDYVGWRNESATNGYIEIMFEFDRIRNFTTMKVHCNNMFAKGVKIFKEVQCYFRSEASEWEPNAISFPLVLDDVNPSARFVTVPLHHRMASAIKCQYHFADTWMMFSEITFQSDAAMYNNSEALPTSPMAPTTYDPMLKVDDSNTRILIGCLVAIIFILLAIIVIILWRQFWQKMLEKASRRMLDDEMTVSLSLPSDSSMFNNNRSSSPSEQGSNSTYDRIFPLRPDYQEPSRLIRKLPEFAPGEEESGCSGVVKPVQPSGPEGVPHYAEADIVNLQGVTGGNTYSVPAVTMDLLSGKDVAVEEFPRKLLTFKEKLGEGQFGEVHLCEVEGMEKFKDKDFALDVSANQPVLVAVKMLRADANKNARNDFLKEIKIMSRLKDPNIIHLLAVCITDDPLCMITEYMENGDLNQFLSRHEPPNSSSSDVRTVSYTNLKFMATQIASGMKYLSSLNFVHRDLATRNCLVGKNYTIKIADFGMSRNLYSGDYYRIQGRAVLPIRWMSWESILLGKFTTASDVWAFGVTLWETFTFCQEQPYSQLSDEQVIENTGEFFRDQGRQTYLPQPAICPDSVYKLMLSCWRRDTKNRPSFQEIHLLLLQQGDE
In the case of B1, the binding result is “binds”.
